These are yes or no findings as the source states them, for the method shown. Some entries that bind do so weakly or less than the wild type.
Assays:
[1] = target: Cyno PD-L1-rCD4-His (cynomolgus); experiment: SPR, IgG1 from culture supernatant
[2] = target: human PD-L1-rCD4-His (human); experiment: SPR, IgG1 from culture supernatant
[3] = target: human PD-L1-Fc (R&D Biosystems, 156-B7) (human) (UniProt Q9NZQ7); experiment: SPR, antigen on CM5 chip, mAb^2 at 1 nM
[4] = target: PD-L1-His (Acrobiosystems, PD1-H83F3) (human) (UniProt Q9NZQ7); experiment: SPR, antigen on CM5 chip, mAb^2 at 1 nM

Protein sequences, listed by entry. Tags and fused reporters are not part of them. Lines headed by an entry give the natural chain unless they say otherwise; changes in a name come on top. Residues count along the entry.
UniProt Q9NZQ7: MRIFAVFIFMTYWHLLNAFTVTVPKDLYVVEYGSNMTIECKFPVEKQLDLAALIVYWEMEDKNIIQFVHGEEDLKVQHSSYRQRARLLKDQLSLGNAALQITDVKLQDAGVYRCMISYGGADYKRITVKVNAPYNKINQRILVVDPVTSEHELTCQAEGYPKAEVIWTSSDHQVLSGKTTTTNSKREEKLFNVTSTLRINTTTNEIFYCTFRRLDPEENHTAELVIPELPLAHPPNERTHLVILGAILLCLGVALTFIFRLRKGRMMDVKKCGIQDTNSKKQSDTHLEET
human PD-L1-Fc (R&D Biosystems, 156-B7): residues 19-239 of Q9NZQ7

Row | Binder | binding [1] | binding [2] | binding [3] | binding [4]
1 | G1/929_01_A05 (antibody, human IgG1, V domains shown) VH: EVQLVQSGAEVKRPGASVKVSCKASGYTFTSYGISWVRQAPGQGLEWMGWISAYSGGTNYAQKLQGRVTMTTDTSTSTAYMELRSLRSDDTAVYYCARDLFPTIFGVSYYYYWGQGTLVTVSS VL: DIQMTQSPSTLSASVGDRVTITCRASQSISGRLAWYQQKPGKAPNLLIYEASNLESGVPSRFSGSGSGTEFTLTINSLQPDDFATYYCQQANTFPRVSFGGGTKVEIKR | binds | binds | – | –
2 | G1/929_01_A12 (antibody, human IgG1, V domains shown) VH: EVQLVQSGAEVKRPGASVKVSCKASGYTFTSYGISWVRQAPGQGLEWMGWISAYSGNANYAQKLQGRVTMTTDTSTSTAYMELRSLRSDDTAVYYCARDLFPTIFGVSYYYYWGQGTLVTVSS VL: DIQMTQSPSTLSASVGDRVTITCRASQSISGRLAWYQQKPGKAPNLLIYEASNLESGVPSRFSGSGSGTEFTLTISSLQPEDFATYYCQQSYSWPRTFGQGTKVEIKR | binds | binds | – | –
3 | G1/929_01_A06 (antibody, human IgG1, V domains shown) VH: EVQLVQSGAEVKRPGASVKVSCKASGYTFTSYGISWVRQAPGQGLEWMGWISAYSGNANYAQKLQGRVTMTTDTSTSTAYMELRSLRSDDTAVYYCARDLFPTIFGVSYYYYWGQGTLVTVSS VL: DIQMTQSPSTLSASVGDRVTITCRASQSISGRLAWYQQKPGKAPNLLIYEASNLESGVPSRFSGSGSGTEFTLTINSLQPDDFATYYCQQANTFPRVSFGGGTKVEIKR | binds | binds | – | –

Other lines, results leading:

Row | binding [1] | binding [2] | binding [3] | binding [4] | Binder
4 | – | – | binds | binds | FS22-172-003AA/E12v2 (bispecific antibody, human IgG1, kappa, L234A L235A, V domains shown) VH: EVQLVQSGAEVKRPGASVKVSCKASGYPFTSYGISWVRQAPGQGLEWMGWISAYSGGTNYAQKLQGRVTMTTDTSTSTAYMELRSLRSDDTAVYYCARDLFPTIFGVSYYYYWGQGTLVTVSS VL: DIQMTQSPSTLSASVRDRVIITCRASQSIGNRLAWYQHKPGKAPKLLIYEASTSETGVPSRFSGSGSGTDFTLTISSLQPEDFATYYCQQSYSTPYTFGQGTKLEIKR
5 | – | – | binds | binds | FS22-172-003AA/G12v2 (bispecific antibody, human IgG1, kappa, L234A L235A, V domains shown) VH: EVQLVQSGAEVKRPGASVKVSCKASGYTFTSYGISWVRQAPGQGLEWMGWISAYSGGTNYAQKLQGRVTMTTDTSTSTAYMELRSLRSDDTAVYYCARDLFPTIFGVSYYYYWGQGTLVTVSS VL: DIQMTQSPSTLSASVGDRVTITCRASQSISGRLAWYQQKPGKAPNLLIYEASNLESGVPSRFSGSGSGTEFTLTISSLQPEDFATYYCQQSYSWPRTFGQGTKVEIKR

From patent publication US20250270324A1
